Source: PubChem BioAssay AID493014 (National Center for Advancing Translational Sciences (NCATS), 2011)
The campaign covered roughly 340,000 compounds. About 170 (0.05%) were called active. This list was built around the results that the source calls inconclusive (neither active nor inactive); the mix of calls is not that of the screen. The call rests on the fitted dose curve; in most records, active means well fitted inhibition curve with a large enough effect in the signal ratio, with a control signal flat (not every such curve was filed as active); inconclusive means small, poorly fitted or top-dose-only effect, or effect the other way, or a change in a side signal; inactive means flat fitted curve, though single readings scatter; the % refers to the signal ratio. Where the call is inconclusive, the potency comes from a doubtful curve fit.

Experiment: qHTS Assay to Find Inhibitors of Chronic Active B-Cell Receptor Signaling;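 on activity change, negative = inhibition: plate controls were basal doxycycline-induced cells for no effect and cells given 10 µM MG132 for full effect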
Settings: ABC-DLBCL IkBa-CBG/CBR reporter, luminescence ratio (green luciferase fused to IkBa over red control in TMD8 lymphoma cells), 4 h; activity change, negative = inhibition: at 46.1 µM (top of the series)
Summary of the method: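 Cell line TMD8 (human ABC DLBCL), stably expressing tet-inducible CBG68-IkBa fusion and CBR; IMDM/0.5% FBS; cpd up to 46 uM; dox induction, 4 h, 37C/5% CO2; dual luminescence; green/red ratio; MG132 control.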
Potency means the concentration at half of the fitted maximal effect.

**Q.** For `CCc1ccc(S(=O)(=O)N2CC(=O)Nc3ccccc32)cc1`, which activity change, negative = inhibition is on record?
**A.** inactive

**Q.** For `c1ccc2c(c1)CC/C2=N/Nc1nc2ccccc2[nH]1`, which Potency is on record?
**A.** inconclusive: 25.1 µM [falling, single point]

**Q.** For `O=C(/C=C\Nc1ccc2c(c1)OCO2)c1ccccn1`, which Potency is on record?
**A.** inconclusive: 6.31 µM [rising, single point]

**Q.** Which Potency does the source give for `COc1cccc(/C=N/NC(=O)CNC(=O)C(c2ccccc2)c2ccccc2)c1O` here?
**A.** inconclusive: 12.6 µM [falling, partial curve, poor fit]

**Q.** With `Cc1c(CC(=O)O)c(=O)oc2cc3occ(-c4ccc(F)cc4)c3cc12` as the compound, how does the activity change, negative = inhibition read?
**A.** inconclusive: 1.94%

**Q.** With `Clc1ccc(CN2C3=NCCN3c3ccccc32)cc1` as the compound, how does the activity change, negative = inhibition read?
**A.** inactive

**Q.** Which activity change, negative = inhibition does the source give for `CCC(CC)C(=O)NCCCN1CCOCC1` here?
**A.** inconclusive: 2.13%

**Q.** For `CC(C)(C)OC(=O)NCCCC[C@H](NC(=O)c1nc[nH]c1C(=O)N1CCc2ccccc2C1)C(=O)OC(C)(C)C`, which activity change, negative = inhibition is on record?
**A.** inconclusive: 1.27%

**Q.** With `CCOC(=O)/C(=C/C=C/c1ccccc1)NC(=O)c1ccccc1` as the compound, how does the activity change, negative = inhibition read?
**A.** inactive

**Q.** Which activity change, negative = inhibition does the source give for `Cc1ccc2oc(=O)n(CCCOc3ccccc3)c2c1` here?
**A.** inconclusive: 10.6%

**Q.** For `COc1ccc(/C=C2\CCC/C(=C\C=N\N(C)C)C2=O)cc1`, which Potency is on record?
**A.** inconclusive: 12.6 µM [falling, partial curve]

**Q.** For `CSc1nc2ccc(NS(=O)(=O)c3c(Cl)cccc3Cl)cc2s1`, which activity change, negative = inhibition is on record?
**A.** inconclusive: 14%

**Q.** With `CC(=O)Nc1ccc(N/C=C/C(=O)c2ccc(C)cc2)cc1` as the compound, how does the activity change, negative = inhibition read?
**A.** inconclusive: 7.3%

**Q.** For `COC(=O)c1ccc(NC(=O)Nc2ccccc2F)cc1`, which Potency is on record?
**A.** inconclusive: 20 µM [falling, single point]

**Q.** Which activity change, negative = inhibition does the source give for `Cc1ccc(-c2nc3ccccn3c2Nc2ccccc2)o1` here?
**A.** inactive

**Q.** Which Potency does the source give for `Cn1c(/C=N/Nc2nc3ccccc3[nH]2)nc2ccccc21` here?
**A.** inconclusive: 31.6 µM [rising, single point]

**Q.** For `NS(=O)(=O)c1ccc(NC2=CC(c3ccc([N+](=O)[O-])cc3)N(c3ccc(S(N)(=O)=O)cc3)C2=O)cc1` (stereo not given), which activity change, negative = inhibition is on record?
**A.** inconclusive: 0.509%

**Q.** For `Fc1cccc2sc(Nc3nc4cc5c(cc4s3)OCO5)nc12`, which activity change, negative = inhibition is on record?
**A.** inconclusive: 0.645%

**Q.** For `Cc1ccc2c(CNCc3ccco3)cc(=O)oc2c1`, which activity change, negative = inhibition is on record?
**A.** inconclusive: -23%

**Q.** Which activity change, negative = inhibition does the source give for `O=C(CCCc1cccs1)N1CCN(S(=O)(=O)c2ccccc2Br)CC1` here?
**A.** inactive

**Q.** For `CCc1ccccc1OCC(=O)N(CC)CC(=O)NCc1ccc(F)cc1`, which activity change, negative = inhibition is on record?
**A.** inconclusive: -7.6%

**Q.** With `CCN(CC)CCn1c(NC(=O)c2ccc(C)cc2)nc2ccccc21` as the compound, how does the activity change, negative = inhibition read?
**A.** inactive

**Q.** Which activity change, negative = inhibition does the source give for `Cc1ccc(NC(=O)CSCC(=O)N2CCN(Cc3ccc4c(c3)OCO4)CC2)cc1` here?
**A.** inactive

**Q.** For `O=C(Nc1ccc(-c2nc3cc(NC(=O)c4ccc(Cl)cc4)ccc3o2)cc1)c1ccc(Cl)cc1`, which Potency is on record?
**A.** inconclusive: 3.98 µM [rising, full curve]

**Q.** For `N/C(=N\c1nc(C(F)(F)F)cc(=O)[nH]1)Nc1ccc(Cl)cc1`, which activity change, negative = inhibition is on record?
**A.** inconclusive: -0.643%

**Q.** With `Cn1cc([N+](=O)[O-])c(C(=O)Nc2cnn(Cc3ccc(F)cc3)c2)n1` as the compound, how does the activity change, negative = inhibition read?
**A.** inconclusive: -16.3%

**Q.** With `Cc1cc(C)c(S(=O)(=O)N2CCCCC2CCNC(=O)C(=O)NCc2ccco2)c(C)c1` (stereo not given) as the compound, how does the activity change, negative = inhibition read?
**A.** inactive

**Q.** With `O=C(Nc1cccc(Cl)c1N1CCOCC1)c1cccs1` as the compound, how does the activity change, negative = inhibition read?
**A.** inconclusive: -12.7%

**Q.** With `CCc1cc(C(=O)NCCN(C)C)cs1` as the compound, how does the activity change, negative = inhibition read?
**A.** inconclusive: -2.31%

**Q.** With `CC(C)CCOc1ccc(/C=N/N2C(=O)CSC2=S)cc1` as the compound, how does the activity change, negative = inhibition read?
**A.** inactive

**Q.** With `N#Cc1cc2c(nc1SCC(N)=O)CCCCC2` as the compound, how does the Potency read?
**A.** inconclusive: 23.1 µM [falling, partial curve]

**Q.** For `O=C(CCS(=O)(=O)c1ccccc1)Nc1ccc(-c2nc3ccccc3s2)c(O)c1`, which Potency is on record?
**A.** inconclusive: 2.06 µM [falling, partial curve, poor fit]

**Q.** For `CCOc1ccc(NC(=O)c2ccc(NC(=S)NC3CCCCC3)cc2)cc1`, which Potency is on record?
**A.** inconclusive: 8.91 µM [falling, partial curve]

**Q.** For `Cc1cc(=O)oc2c(C)c(OCC(=O)N3CCN(C(=O)C4COc5ccccc5O4)CC3)ccc12` (stereo not given), which activity change, negative = inhibition is on record?
**A.** inconclusive: -1.81%

**Q.** With `COc1ccc(-c2nnc(SCc3c(C)noc3C)o2)cc1` as the compound, how does the Potency read?
**A.** inconclusive: 2 µM [falling, full curve, poor fit]

**Q.** Which activity change, negative = inhibition does the source give for `c1ccc(-c2ccncc2)nc1` here?
**A.** inactive

**Q.** Which activity change, negative = inhibition does the source give for `O=c1oc2ccc(Cl)cc2nc1/C=C(\O)c1cccs1` here?
**A.** inconclusive: -0.26%

**Q.** For `C=CCNc1nc(Nc2ccc([N+](=O)[O-])cc2)nc(OCC)n1`, which activity change, negative = inhibition is on record?
**A.** inactive

**Q.** Which activity change, negative = inhibition does the source give for `O=C(c1ccc(CNS(=O)(=O)c2cccc(Cl)c2)cc1)N1CCCC1` here?
**A.** inactive

**Q.** Which activity change, negative = inhibition does the source give for `CCOC(=O)C1(Cc2cccc(OC)c2)CCN(Cc2cccc(OC)c2O)CC1` here?
**A.** inconclusive: -8.65%

**Q.** With `COc1ccc(S(=O)(=O)N2CCC(N3CCCC3)CC2)cc1` as the compound, how does the activity change, negative = inhibition read?
**A.** inconclusive: 2.46%

**Q.** Which activity change, negative = inhibition does the source give for `COc1ccc(NC(=O)Nc2sc(NS(=O)(=O)c3ccccc3)nc2C)cc1` here?
**A.** inactive

**Q.** For `CC(NC(=O)c1ccc(F)cc1)C(=O)NC1=NCCS1` (stereo not given), which activity change, negative = inhibition is on record?
**A.** inactive

**Q.** With `CC(C)OC(=O)c1ccc(NC(=O)c2cncc(Br)c2)cc1` as the compound, how does the activity change, negative = inhibition read?
**A.** inconclusive: 0.337%

**Q.** Which activity change, negative = inhibition does the source give for `COc1ccc(C(=O)NNc2ncnc3c2cnn3-c2ccc(C)cc2C)cc1` here?
**A.** inactive

**Q.** With `CCOC(=O)C1=C(CC)Nc2ccccc2N/C1=N\S(=O)(=O)c1cc(Br)ccc1Br` as the compound, how does the activity change, negative = inhibition read?
**A.** inconclusive: 9.73%

**Q.** For `O=C(O)Cc1ccc(NC(=O)Nc2cccc(Cl)c2)cc1`, which Potency is on record?
**A.** inconclusive: 10 µM [falling, partial curve, poor fit]

**Q.** For `CCn1c(SCC(=O)Nc2nc3ccccc3s2)nnc1-c1ccc(OC)cc1`, which activity change, negative = inhibition is on record?
**A.** inconclusive: 6.72%

**Q.** Which activity change, negative = inhibition does the source give for `c1cc(-c2noc(CC3CCCCC3)n2)ccn1` here?
**A.** inconclusive: 6.98%

**Q.** Which activity change, negative = inhibition does the source give for `N#Cc1cn(CCOc2ccc(F)cc2)c2ccccc12` here?
**A.** inconclusive: -12.8%

**Q.** With `Cc1cccc2nc(C(=O)Nc3cc(Cl)ccc3-n3cncn3)cn12` as the compound, how does the activity change, negative = inhibition read?
**A.** inconclusive: 3.52%

**Q.** Which activity change, negative = inhibition does the source give for `Fc1ccc(F)c(CN2CCN(c3ncccn3)CC2)c1` here?
**A.** inactive

**Q.** Which activity change, negative = inhibition does the source give for `COC(=O)C1=C(C)NC(=S)N(C(C)=O)C1c1ccccc1` (stereo not given) here?
**A.** inconclusive: 2.38%

**Q.** For `O=C(/C=C/Nc1cccc(F)c1)c1ccco1`, which Potency is on record?
**A.** inconclusive: 16.4 µM [falling, partial curve]

**Q.** Which activity change, negative = inhibition does the source give for `C=CCSc1nc(-c2ccc3c(c2)OCO3)cc(C(F)(F)F)c1C#N` here?
**A.** inactive
